From PMC4492821 come the findings set out here.

Protein sequences, listed by entry. Tags and fused reporters are not part of them.
UniProt P25322: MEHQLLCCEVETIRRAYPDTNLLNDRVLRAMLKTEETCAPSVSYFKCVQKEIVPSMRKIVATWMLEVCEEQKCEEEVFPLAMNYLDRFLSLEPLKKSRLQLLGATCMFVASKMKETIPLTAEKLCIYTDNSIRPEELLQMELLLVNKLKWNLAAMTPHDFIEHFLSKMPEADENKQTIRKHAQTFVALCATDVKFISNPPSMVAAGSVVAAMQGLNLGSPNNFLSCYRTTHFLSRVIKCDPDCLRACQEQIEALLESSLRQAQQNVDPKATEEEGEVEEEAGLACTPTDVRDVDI

Results are given in words; binding and its absence hold for the method and conditions named. In cells and extracts the contact can be indirect. Some binding calls cover weakened binding; strength is not graded here.

In this assay the target is T1, CDK4 (mouse (endogenous in MAFs)) (UniProt P30285).
T1 sequence: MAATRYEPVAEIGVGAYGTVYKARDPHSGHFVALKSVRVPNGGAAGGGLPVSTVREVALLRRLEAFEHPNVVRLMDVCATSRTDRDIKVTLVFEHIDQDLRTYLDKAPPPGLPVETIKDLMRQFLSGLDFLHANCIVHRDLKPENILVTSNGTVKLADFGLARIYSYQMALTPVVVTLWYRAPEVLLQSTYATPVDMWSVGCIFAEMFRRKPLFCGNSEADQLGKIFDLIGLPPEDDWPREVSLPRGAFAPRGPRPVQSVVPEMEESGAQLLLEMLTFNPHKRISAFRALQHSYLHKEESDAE
Briefly: co-IP; endogenous proteins in +/+ and KI/KI models; immunoprecipitation as previously described (Knudsen et al, 1998); the text shown does not say which protein was precipitated for Supplementary Fig S3B.

For cyclin D1a (from UniProt P25322 1-295), the binding entry is on record as “binds”.
